# Source: the supplement of paper PMC8732350
# Counter-ions that a name gives are not always drawn. ± gives the standard deviation of the averaged measurements. The list shows a part of the results. This data set is noisy: repeats of one test often differ as much as different tests do.
# Tested on: A549
# Assay: surface PD-L1 immunofluorescence intensity relative to IFN-gamma-only control (ratio); higher = more PD-L1 expression
# Conditions: 10 µM; exposure time 24 h; IFN-gamma 100 ng/mL
row,Structure (SMILES),surface PD-L1 immunofluorescence intensity
1,O=C1c2ccccc2C(=O)C1c1ccccc1 [Phenindione],1.04
2,CCCCCCCCOC(=O)/C=C/c1ccc(O)c(O)c1 [n-Octyl caffeate],0.998
3,O=C(O)CCc1nc(-c2ccccc2)c(-c2ccccc2)o1 [Oxaprozin],1.01
4,CC[C@H]1OC(=O)[C@H](C)[C@@H](O[C@H]2C[C@@](C)(OC)[C@@H](O)[C@H](C)O2)[C@H](C)[C@@H](O[C@@H]2O[C@H](C)C[C@H](N(C)C)[C@H]2O)[C@](C)(O)C[C@@H](C)C(=O)[C@H](C)[C@@H](O)[C@]1(C)O [Erythromycin (E-Mycin)],0.91
5,OC[C@@H](O)[C@@H](O)[C@H](O)[C@H](O)CO [D-Mannitol (Osmitrol)],1.13
6,C=CCc1ccc(O)c(OC)c1 [Eugenol],0.963
7,CC(=O)OCC(=O)NCCCOc1cccc(CN2CCCCC2)c1 [Roxatidine Acetate HCl],1.06
8,CCn1cc(C(=O)O)c(=O)c2cc(F)c(N3CCNCC3)nc21 [Enoxacin],1.11
9,C[C@H](NCc1ccc(OCc2cccc(F)c2)cc1)C(N)=O,1.09
10,Oc1ccc(C2CNCCc3c2cc(O)c(O)c3Cl)cc1 (stereo not given) [Fenoldopam hydrochloride],0.929
11,CC(C(=O)O)c1cccc(Oc2ccccc2)c1 (stereo not given) [Fenoprofen calcium salt dihydrate],0.995
12,CC(C(=O)O)c1cccc(Oc2ccccc2)c1 (stereo not given) [Fenoprofen calcium hydrate],1.03
13,C[C@@H]1CN(CCCn2c3ccccc3c3ccccc32)C[C@H](C)N1 [Rimcazole dihydrochloride],0.928
14,NCC1CCC(C(=O)N[C@@H](Cc2ccccc2)C(=O)Nc2ccc(CC(=O)O)cc2)CC1 (stereo not given in full),1.06
15,O=C1NC(=O)C(c2ccccc2[N+](=O)[O-])=C1Nc1ccc(O)c(Cl)c1,0.946
16,OC[C@H]1OC(O)[C@H](O)[C@@H](O)[C@@H]1O (stereo partly drawn) [Dextrose (D-glucose)],1.09
17,CCCc1ncc(C[n+]2ccccc2C)c(N)n1 [Amprolium hydrochloride],0.866
18,O=C1NC(=O)/C(=C/c2ccc3nccc(-c4ccncc4)c3c2)S1,0.958
19,CN1Cc2c(C(=O)OC(C)(C)C)ncn2-c2ccsc2C1=O,0.934
20,N#C/C(=C\c1ccc(O)c(O)c1)C(=O)Nc1ccccc1,0.946
21,CCCC[P+](CCCC)(CCCC)Cc1ccc(NC(=O)C(Cc2ccc3ccccc3c2)NC(=NC2CCCCC2)NC2CCCCC2)cc1 (stereo not given),1.08
22,Nc1ccc(S(=O)(=O)NC(=O)c2ccccc2)cc1 [Sulfabenzamide],0.97
23,C=C(CC)C(=O)c1ccc(OCC(=O)O)c(Cl)c1Cl [Ethacrynic acid],0.85
24,CC(C)c1nc(N(C)S(C)(=O)=O)nc(-c2ccc(F)cc2)c1/C=C/[C@@H](O)C[C@@H](O)CC(=O)O [Rosuvastatin calcium (Crestor)],1.1
25,O=C(COc1cccc2c(=O)[nH]ccc12)c1ccccc1,0.959

row,Structure (SMILES),surface PD-L1 immunofluorescence intensity
1,O=C(O)Cn1c(C(=O)Nc2nc(-c3ccccc3Cl)cs2)cc2ccccc21,0.918
2,CS(=O)(=O)c1ccc([C@@H](O)[C@@H](CF)NC(=O)C(Cl)Cl)cc1 [Florfenicol],0.987
3,CCN(CC)CCCC(C)Nc1ccnc2cc(Cl)ccc12 (stereo not given) [Chloroquine diphosphate],0.997
4,CCN(CC)CCCC(C)Nc1ccnc2cc(Cl)ccc12 (stereo not given) [Chloroquine],1.03
5,CNc1ncnc2c1ncn2[C@@H]1O[C@H](CO)[C@@H](O)[C@H]1O [N6-methyladenosine],1.4
6,CC(C)OC(=O)C(C(=O)OC(C)C)=C1SC=CS1 [Malotilate],1.03
7,"OCC(O)CN1CCN(c2ccccc2)CC1 (racemic) [Dropropizine (R,S)]",0.862
8,O=C(c1ccc(F)cc1)C1CCN(CCCCc2ccccc2)CC1 [4-(4-Fluorobenzoyl)-1-(4-phenylbutyl)-piperidine oxalate],1.02
9,CC(C)(C)C(=O)OCOC(=O)[C@@H]1N2C(=O)[C@@H](/N=C/N3CCCCCC3)[C@H]2SC1(C)C [Pivmecillinam hydrochloride],1.04
10,C[C@@H](O)[C@H]1C(=O)N2C(C(=O)O)=C(SCCNC=N)C[C@H]12 [Imipenem],0.984
11,c1ccc2c(c1)CCCC2C1=NCCN1 (stereo not given) [Tetrahydrozoline hydrochloride],1.06
12,CN=c1nc(-c2ccccc2)n(-c2ccccc2)s1,0.946
13,O=C1NCCN1c1ncc([N+](=O)[O-])s1 [Niridazole],1
14,C[Se]CC[C@H](N)C(=O)O [Selenomethionine],0.974
15,O=C(O)C1=C[C@@H](O)[C@@H](O)[C@H](O)C1 [Shikimic acid (Shikimate)],1.08
16,C1N2CN3CN1CN(C2)C3 [Methenamine],0.959
17,CCCCCN(C)CCC(O)(P(=O)(O)O)P(=O)(O)O [Ibandronate sodium],1 ± 0.089
18,C=C1CC[C@H](O)C/C1=C/C=C1\CCC[C@]2(C)[C@@H]([C@H](C)CCCC(C)C)CC[C@@H]12 [Vitamin D3 (Cholecalciferol)],1
19,CC(C)(O)[C@H]1CC[C@@](C)([C@H]2[C@@H](O)C[C@@]3(C)[C@@H]4C[C@H](O[C@@H]5O[C@H](CO)[C@@H](O)[C@H](O)[C@H]5O)[C@H]5C(C)(C)[C@@H](O[C@@H]6OC[C@@H](O)[C@H](O)[C@H]6O)CC[C@@]56C[C@@]46CC[C@]23C)O1 [Astragaloside A],1.08
20,NNCCc1ccccc1 [Phenelzine sulfate],0.949
21,CC(=O)S[C@@H]1CC2=CC(=O)CC[C@]2(C)[C@H]2CC[C@@]3(C)[C@@H](CC[C@@]34CCC(=O)O4)[C@H]12 [Spironolactone],0.862 ± 0.048
22,CCCc1cc(C(N)=S)ccn1 [Prothionamide],0.972
23,CC(=O)Nc1ccc(C(=O)Nc2ccccc2N)cc1,1.06
24,CC(Cc1cccc(C(F)(F)F)c1)NCCOC(=O)c1ccccc1 (stereo not given) [Benfluorex hydrochloride],0.912
25,COC(=O)[C@@H](N)CSC/C=C(\C)CC/C=C(\C)CCC=C(C)C [S-Farnesyl-L-cysteine methyl ester],1.06

# 22 entries from above, with bars between the fields:
row | Structure (SMILES) | surface PD-L1 immunofluorescence intensity
25 | O=C(COc1cccc2c(=O)[nH]ccc12)c1ccccc1 | 0.959
1 | O=C(O)Cn1c(C(=O)Nc2nc(-c3ccccc3Cl)cs2)cc2ccccc21 | 0.918
2 | CS(=O)(=O)c1ccc([C@@H](O)[C@@H](CF)NC(=O)C(Cl)Cl)cc1 [Florfenicol] | 0.987
3 | CCN(CC)CCCC(C)Nc1ccnc2cc(Cl)ccc12 (stereo not given) [Chloroquine diphosphate] | 0.997
4 | CCN(CC)CCCC(C)Nc1ccnc2cc(Cl)ccc12 (stereo not given) [Chloroquine] | 1.03
5 | CNc1ncnc2c1ncn2[C@@H]1O[C@H](CO)[C@@H](O)[C@H]1O [N6-methyladenosine] | 1.4
6 | CC(C)OC(=O)C(C(=O)OC(C)C)=C1SC=CS1 [Malotilate] | 1.03
7 | OCC(O)CN1CCN(c2ccccc2)CC1 (racemic) [Dropropizine (R,S)] | 0.862
8 | O=C(c1ccc(F)cc1)C1CCN(CCCCc2ccccc2)CC1 [4-(4-Fluorobenzoyl)-1-(4-phenylbutyl)-piperidine oxalate] | 1.02
9 | CC(C)(C)C(=O)OCOC(=O)[C@@H]1N2C(=O)[C@@H](/N=C/N3CCCCCC3)[C@H]2SC1(C)C [Pivmecillinam hydrochloride] | 1.04
10 | C[C@@H](O)[C@H]1C(=O)N2C(C(=O)O)=C(SCCNC=N)C[C@H]12 [Imipenem] | 0.984
11 | c1ccc2c(c1)CCCC2C1=NCCN1 (stereo not given) [Tetrahydrozoline hydrochloride] | 1.06
12 | CN=c1nc(-c2ccccc2)n(-c2ccccc2)s1 | 0.946
13 | O=C1NCCN1c1ncc([N+](=O)[O-])s1 [Niridazole] | 1
14 | C[Se]CC[C@H](N)C(=O)O [Selenomethionine] | 0.974
15 | O=C(O)C1=C[C@@H](O)[C@@H](O)[C@H](O)C1 [Shikimic acid (Shikimate)] | 1.08
16 | C1N2CN3CN1CN(C2)C3 [Methenamine] | 0.959
17 | CCCCCN(C)CCC(O)(P(=O)(O)O)P(=O)(O)O [Ibandronate sodium] | 1 ± 0.089
18 | C=C1CC[C@H](O)C/C1=C/C=C1\CCC[C@]2(C)[C@@H]([C@H](C)CCCC(C)C)CC[C@@H]12 [Vitamin D3 (Cholecalciferol)] | 1
19 | CC(C)(O)[C@H]1CC[C@@](C)([C@H]2[C@@H](O)C[C@@]3(C)[C@@H]4C[C@H](O[C@@H]5O[C@H](CO)[C@@H](O)[C@H](O)[C@H]5O)[C@H]5C(C)(C)[C@@H](O[C@@H]6OC[C@@H](O)[C@H](O)[C@H]6O)CC[C@@]56C[C@@]46CC[C@]23C)O1 [Astragaloside A] | 1.08
20 | NNCCc1ccccc1 [Phenelzine sulfate] | 0.949
21 | CC(=O)S[C@@H]1CC2=CC(=O)CC[C@]2(C)[C@H]2CC[C@@]3(C)[C@@H](CC[C@@]34CCC(=O)O4)[C@H]12 [Spironolactone] | 0.862 ± 0.048

# (listing goes on)

row,Structure (SMILES),surface PD-L1 immunofluorescence intensity
1,CN1CCC(=C2c3ccccc3C=Cc3ccccc32)CC1 [Cyproheptadine hydrochloride],1.01 ± 0.042
2,CC(C)(C)NC[C@@H](O)COc1cccc2c1CCCC2=O [(+) -Levobunolol hydrochloride],1.03
3,CO[C@H]1/C=C/O[C@@]2(C)Oc3c(C)c(O)c4c(O)c(c(/C=N/N5CCN(C6CCCC6)CC5)c(O)c4c3C2=O)NC(=O)/C(C)=C\C=C\[C@H](C)[C@H](O)[C@@H](C)[C@@H](O)[C@@H](C)[C@H](OC(C)=O)[C@@H]1C [Rifapentine (Priftin)],1.09
4,CO[C@H]1/C=C/O[C@@]2(C)Oc3c(C)c(O)c4c(O)c(c(/C=N/N5CCN(C6CCCC6)CC5)c(O)c4c3C2=O)NC(=O)/C(C)=C\C=C\[C@H](C)[C@H](O)[C@@H](C)[C@@H](O)[C@@H](C)[C@H](OC(C)=O)[C@@H]1C [Rifapentine],1.05
5,N=C(N)NC(=N)NCCc1ccccc1 [Phenformin hydrochloride],1.06 ± 0.083
6,C[C@H]1O[C@H](O[C@H]2[C@H](O)[C@@H](O)[C@@H](O[C@H]3[C@H](O)[C@@H](O)C(O)O[C@@H]3CO)O[C@@H]2CO)[C@H](O)[C@@H](O)[C@@H]1N[C@H]1C=C(CO)[C@@H](O)[C@H](O)[C@H]1O (stereo not given in full) [Acarbose],0.974 ± 0.04
7,CC(C)(C=O)Cc1cc(C(C)(C)C)c(O)c(C(C)(C)C)c1,1.01
8,"Nc1ccc(CC(CC(=O)O)C(=O)O)cc1 [4-Amino-D, L-benzylsuccinic acid]",1.01
9,"Cn1c(CNc2ccc(C(=N)N)cc2)nc2cc(C(=O)N(CCC(=O)O)c3ccccn3)ccc21 [BIBR 953 (Dabigatran etexilate, Pradaxa)]",1.01
10,CNC1CCCN(c2c(F)cc3c(=O)c(C(=O)O)cn(C4CC4)c3c2OC)C1 (stereo not given) [Balofloxacin],1.1
11,Cc1cn[nH]c1 [Fomepizole],1.15
12,NCCc1c[nH]cn1 [Histamine dihydrochloride],1
13,Cc1ccc(-c2csc3ncnc(SCCC(=O)O)c23)cc1,0.911
14,CCCOc1cc(N)ccc1C(=O)OCCN(CC)CC [Propoxycaine hydrochloride],1.01
15,OC(Cn1cncn1)(Cn1cncn1)c1ccc(F)cc1F [Fluconazole],1.11
16,Nc1[nH]cnc2ncnc1-2 [Adenine],1.17
17,Nc1[nH]cnc2ncnc1-2 [Adenine sulfate],1.12
18,C[C@@H](NCCCc1cccc(C(F)(F)F)c1)c1cccc2ccccc12 [AMG-073 HCl (Cinacalcet HCl)],1.02
19,CC[N+](C)(C)c1cccc(O)c1 [Edrophonium chloride],0.827
20,NS(=O)(=O)c1cc(C2(O)NC(=O)c3ccccc32)ccc1Cl (stereo not given) [Chlorthalidone],1.08
21,C=CC(N)CCC(=O)O (stereo not given) [Vigabatrin],1.08
22,CCCCCCCCCCCCCCCC(=O)OC/C=C(C)/C=C/C=C(C)/C=C/C1=C(C)CCCC1(C)C [Retinyl palmitate],0.81
23,Cc1ncc(C[n+]2csc(CCO)c2C)c(N)n1 [Thiamine hydrochloride],0.976
24,CC(C)c1c(C(=O)Nc2ccccc2)c(-c2ccccc2)c(-c2ccc(F)cc2)n1CC[C@@H](O)C[C@@H](O)CC(=O)O [Atorvastatin],1.01
25,CC(=O)OCC(=O)[C@@]1(O)CC[C@H]2[C@@H]3CCC4=CC(=O)CC[C@]4(C)[C@H]3[C@@H](O)C[C@@]21C [Cortisol acetate],0.908
